Measurements: patent publication US20250144228A1, “NANOBODY-DRUG ADDUCTS AND USES THEREOF” (priority 2022, published 2025)

B1: anti-MICA VHH nanobody clone A1 (VHH)
VHH: QVQLVESGGGLVQPGGSLRLSCAASGFTLDYYDIGWFRQAPGKEREGVSCITSSDGSTYYADSVKGRFTISRDNAKNTVYLQMNSLKPEDTAVYYCAADCTKPQWKSKTEAWGQGTQVTVSS
B2: anti-MICA VHH nanobody clone H3 (VHH)
VHH: QVQLVETGGGLVQAGGSLRLSCAASGRTFSSYAMGWFRQAPGKEREFVAGISWSGGSTYYGDSVKGRFTISRDNAKNTVYLLMNSLKPEDTAVYYCAADLVRSYGSSWPSLFQFRNPEDVQDGMDYWGKGTLVTVSS
B3: anti-MICA VHH nanobody clone B11 (VHH)
VHH: QVQLVETGGGLVQPGGSLRLSCAASGFTLDYYAIGWFRQAPGKEREGVSCITSDGNTYYADSVKGRFTISRDNAKNTVYLQMNSLKPEDTAVYYCAADCLSSTWRTNAYLGQGTQVTVSS
B4: anti-MICA VHH nanobody clone E9 (VHH)
VHH: B3 VHH with D30E, Y31H, R45Q, N56D, T103N, N107S, L110W, G111A

The binders below were run against purified MICA*009 (soluble, recombinant; extracellular domain of MICA) (human) (assay: immunoblot).
In the case of B1, the binding is reported as “binds”. B2 was tested, and the binding was “binds”.

Each binder was assayed against MICA*002 variant (ELISA) (human) (assay: ELISA on MICA allelic products).
B1 was tested, and the binding was “no binding”. For B2, the binding was “no binding”. In the case of B3, the binding is reported as “no binding”. B4 was tested, and the binding was “no binding”.

Each binder was assayed against MICA*008 variant (ELISA) (human) (assay: ELISA on MICA allelic products).
For B1, the binding was “binds”. In the case of B2, the binding is reported as “binds”. With B3 the binding was “binds”. B4 was tested, and the binding was “binds”.

The binders below were run against purified MICA*009 (soluble, recombinant; extracellular domain of MICA) (human) (assay: ELISA on MICA allelic products).
With B1 the binding was “binds”. In the case of B2, the binding is reported as “binds”. B3 was tested, and the binding was “binds”. In the case of B4, the binding is reported as “binds”.

These binders were tested against purified MICA*009 (soluble, recombinant; extracellular domain of MICA) (human) (assay: immunoblot of whole cell lysate spiked with purified MICA*009, streptavidin-HRP).
B1 was tested, and the binding was “binds”. B2 was tested, and the binding was “binds”.

Substitutions are numbered along the chain they refer to. Results are given in words; binding and its absence hold for the method and conditions named. For some of these results: Binding can be weak; no strength is given.
